Results deposited as PubChem BioAssay AID1259276 (Sanger Institute, 2017)
The whole screen tested 794 reagents; shown is a part drawn at random. 24 of them (3%) count as active. 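Calls come only from the siRNA-alone arm; drug synergy scores do not affect them.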 Viability is capped at 1. Not stated in the record: the amount of reagent, the time to read-out.

Test: 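Kinome-wide search for kinases colon cancer cells need, and for drug partners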 (primary screen)
Cells: human C2BBe1 colorectal cancer cells
Knock-down reagent: siRNA pool against human genes
Conditions: DMSO vehicle, or one anchor drug: BYL719 at 1 µM, cetuximab at 5 µg/ml, or trametinib at 10 nM; exposure length not stated
Read-out: 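Cell viability as a fraction of non-targeting control wells, mean of replicates, also as a control-based robust z-score, plus a synergy score for each anchor drug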
Reading the numbers: viability robust z-score, siRNA alone and viability vs control, siRNA alone: higher = more viable cells after knock-down; synergy score with BYL719: higher = stronger combined killing with BYL719; synergy score with cetuximab: higher = stronger combined killing with cetuximab; synergy score with trametinib: higher = stronger combined killing with trametinib
Active means: 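Called essential when knock-down alone gives a viability robust z-score below -3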
Calls: active = essential (siRNA alone); inactive = no change (siRNA alone)

gene	viability robust z-score, siRNA alone	viability vs control, siRNA alone	synergy score with BYL719	synergy score with cetuximab	synergy score with trametinib	call
COASY	-2.27	0.827	0.119	0.0622	0.0848	inactive
JAK2	-2.51	0.812	-0.0491	0.0165	-0.161	inactive
SRMS	0.472	1	0.0935	0.171	0.142	inactive
IGF1R	0.472	1	-0.142	0.0854	-0.0667	inactive
TCF7L2	0.472	1	-0.142	-0.0115	-0.0667	inactive
PIK3R2	0.472	1	-0.142	-0.0115	-0.0667	inactive
CDK18	0.472	1	-0.0716	0.188	-0.0667	inactive
SCYL1	0.472	1	-0.142	-0.0115	-0.0667	inactive
PIM3	0.472	1	-0.142	-0.0115	-0.0667	inactive
NEK6	-3.15	0.772	-0.303	-0.0919	-0.28	active
BRSK2	0.472	1	-0.0569	0.0861	-0.0415	inactive
RPS6KA5	0.472	1	0.28	0.112	0.145	inactive
PKDCC	-1.06	0.903	0.00818	-0.107	-0.157	inactive
DAPK3	0.472	1	0.137	0.0623	0.143	inactive
SGK3	0.472	1	-0.142	0.0596	-0.0667	inactive
EPHA1	0.472	1	0.108	0.00673	-0.0667	inactive
MYO3B	-0.777	0.921	0.0423	0.0681	-0.14	inactive
NME2	0.472	1	-0.0656	0.0746	-0.0667	inactive

Not a retest: entries from further up.
gene	viability robust z-score, siRNA alone	viability vs control, siRNA alone	synergy score with BYL719	synergy score with cetuximab	synergy score with trametinib	call
RPS6KA5	0.472	1	0.28	0.112	0.145	inactive
PKDCC	-1.06	0.903	0.00818	-0.107	-0.157	inactive
DAPK3	0.472	1	0.137	0.0623	0.143	inactive
SGK3	0.472	1	-0.142	0.0596	-0.0667	inactive
EPHA1	0.472	1	0.108	0.00673	-0.0667	inactive

Further records follow:
gene	viability robust z-score, siRNA alone	viability vs control, siRNA alone	synergy score with BYL719	synergy score with cetuximab	synergy score with trametinib	call
PFKFB3	-0.0696	0.966	0.23	0.159	-0.0986	inactive
PRPS1	-2.04	0.841	-0.131	-0.0777	-0.201	inactive
STK25	0.472	1	-0.142	-0.0115	-0.0667	inactive
CDK6	0.472	1	0.24	0.00653	0.0248	inactive
FOXP1	-0.541	0.936	0.00991	-0.0746	-0.115	inactive
CHUK	0.472	1	-0.0451	0.0446	-0.0366	inactive
PAK3	0.472	1	0.119	0.0881	-0.0239	inactive
EPHB2	-2.13	0.836	0.00364	-0.104	-0.22	inactive
RFK	0.472	1	0.207	-0.0115	-0.0667	inactive
FN3K	-2.15	0.835	0.0511	-0.0597	-0.082	inactive
NTRK1	0.472	1	0.269	0.23	0.12	inactive
TRIB1	-0.245	0.955	-0.181	0.0351	0.0538	inactive
EXOSC10	0.472	1	-0.142	-0.0115	-0.0667	inactive
MYLK	-0.437	0.943	-0.13	0.26	-0.034	inactive
PSKH2	-0.648	0.929	0.079	-0.0812	-0.133	inactive
PTEN	0.129	0.978	-0.16	-0.0328	-0.0869	inactive
SGK2	0.472	1	-0.142	0.132	-0.0667	inactive
RPS6KL1	0.472	1	0.0352	0.219	0.181	inactive
LMBR1	0.472	1	0.00306	-0.0115	-0.0667	inactive
PANK3	0.472	1	-0.0388	-0.0115	-0.0667	inactive
LIMK2	0.472	1	0.0747	0.272	0.122	inactive
PHKG2	0.472	1	-0.0893	-0.0115	-0.0667	inactive
AK5	0.472	1	0.182	-0.00622	-0.0667	inactive
UCKL1	0.472	1	0.235	-0.0115	-0.0667	inactive
MAP3K3	0.472	1	0.0806	0.169	-0.0667	inactive
PGK1	0.472	1	-0.00412	-0.0115	-0.0667	inactive
JAK3	0.472	1	-0.1	-0.0115	-0.0667	inactive
WIPF1	0.283	0.988	0.271	0.134	0.161	inactive
PDXK	0.472	1	0.0323	-0.0115	-0.0667	inactive
NUCKS1	0.472	1	-0.142	0.0939	-0.0214	inactive
MAP4K5	0.452	0.999	0.0339	-0.0127	-0.0679	inactive
EPHB4	0.472	1	-0.0546	-0.0115	-0.0667	inactive
